For one assay, the target named is c-Src SH2 domain (UniProt P12931). Put plainly: fluorescence polarisation; competition mode: unlabelled phosphopeptide competes with the probe FITC-Ahx-GDG(pY)EEISPLLL for the purified SH2 domain; as in ref. 33; both purified. (In general: Fluorescence polarisation rises when a labelled molecule tumbles more slowly, as on binding a larger partner.)
Assay [1] has as its target Fyn SH2 domain (142-248) (human) (UniProt P06241). The assay is described as above.

The chains behind the UniProt entries cited, without tags or fusion partners. Residues count along the entry.
UniProt P06241, residues 142-248: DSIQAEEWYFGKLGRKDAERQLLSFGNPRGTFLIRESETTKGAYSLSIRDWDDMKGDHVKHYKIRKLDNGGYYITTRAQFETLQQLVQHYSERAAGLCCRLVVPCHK

No constants are given. Whether binding was seen depends on the method and setting. Some results given as binding are weak or reduced against the parent protein; the word gives no strength.

For PIFEGYALPHA (phosphotyrosine at the central Y (Y171)), in the assay with c-Src SH2 domain, the binding result was “binds”.

Regarding SLEKSYELLDG (phosphotyrosine at the central Y (Y240)), the binding result (in assay [1]; in the assay with c-Src SH2 domain) was “binds” each time.

For SDQRRYSLIDR (phosphotyrosine at the central Y (Y972)), the binding result (in assay [1]; with c-Src SH2 domain) was “binds” each time.

In the case of SDQRRYSLIDP (phosphotyrosine at the central Y (Y972)), the binding entry (in assay [1]; with c-Src SH2 domain) was “binds” in each case.

With VEGISYDFIPT (phosphotyrosine at the central Y (Y308)), the binding result (in assay [1]; with c-Src SH2 domain) was “binds” in each case.

For the molecule SLEKSYELPDG (phosphotyrosine at the central Y (Y240)), the binding result (in assay [1]; with c-Src SH2 domain) was “binds” each time.

Consider PIFEGYGLPHA (phosphotyrosine at the central Y (Y171)), for which the binding result in the assay with c-Src SH2 domain is given as “binds”.

Regarding VEGIGYDFIPT (phosphotyrosine at the central Y (Y308)), the binding entry (in assay [1]; in the assay with c-Src SH2 domain) was “binds” each time.

Source of the values: doi:10.1101/2024.12.23.630085, “Accurate sequence-to-affinity models for SH2 domains from multi-round peptide binding assays coupled with free-energy regression” (bioRxiv, 2025).
